The source of these data is patent publication US8859730 (dated 2014).

Data set [1] can be described thus: general procedure: Fmoc solid-phase peptide synthesis; Fmoc-Gly-NovaSyn TGT resin.
The nature of data set [2]: general procedure: Fmoc solid-phase peptide synthesis; Fmoc-Ser(tBu)-NovaSyn TGT resin. The conditions noted are these: whole synthesis.

In data set [1] (coupling step), “H-Ser-Ala-Gln-Lys-Arg-His-Phe-Gly-Ala-SPh” yielded a step yield of 53%.

“Fmoc-Arg-Ala-Ser-Ile-Thr-Thr-Ala-Asp-Gly-O-salicylaldehyde ester”: the step yield in data set [1] (late stage modification step) was determined as 54%.

The substance “H-Cys(S-t-Bu)-His-Cys(Acm)-Ser-Thr-Cys(Acm)-Tyr-Tyr-His-Lys-Ser-OH” displayed an isolated yield in data set [2] of 70% yield.
